Experimental data: PubChem BioAssay AID686938 (Drosophila RNAi Screening Center, 2013)
In all, the deposit lists about 23,000 reagents; this is an unselected part of those with a known target gene and a result. In the full data, 75 (0.33%) got an active call. 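Raw plate signals without normalisation; calls rest on plate z-scores that were not deposited; ratio present for only 364 wells.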 Not stated in the record: the dose of the treatment.

Purpose: 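Fly genes required for calcium entry once internal stores are emptied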 (primary screen)
System: Drosophila S2R+ cells
Reagents: long dsRNA against Drosophila genes, about 0.25 µg dsRNA per well, roughly 10,000 cells
Timing: 5 days of knock-down before the calcium assay
Challenge: thapsigargin (SERCA pump blocker) to empty calcium stores; entry signal taken 4 min after adding it
Read-out: 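Per-well fluo-4 fluorescence in two replicates, unnormalised, measured in resting cells and 4 min after store depletion by the SERCA blocker thapsigargin; ratio of the two present in few wells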
Scale: calcium entry signal: higher = stronger calcium signal after store depletion; resting calcium signal: higher = higher resting calcium signal
Rule for the call: 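Hit if the duplicate-averaged plate z-score for entry over resting signal is under −3; wells with weak total dye signal (Fmax z < −2) or more than 5 off-targets removed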
Meaning of the calls: active = strongly reduced calcium entry; inactive = no strong reduction

gene	PubChem SID	calcium entry signal, replicate 1 (fluorescence units)	calcium entry signal, replicate 2 (fluorescence units)	resting calcium signal, replicate 1 (fluorescence units)	resting calcium signal, replicate 2 (fluorescence units)	Call
CG32354	SID104190555	4.10e7	2.93e7	2.70e7	1.32e7	inactive
CG32354	SID104190567	2.22e7	5.30e7	1.02e7	2.52e7	inactive
CG32354	SID104201543	3.46e7	5.52e7	1.60e7	2.66e7	inactive
CG13492	SID104183929	4.55e7	6.06e7	2.21e7	2.49e7	inactive
XRCC1	SID104198521	3.02e7	2.89e7	1.38e7	1.40e7	inactive
HisT	SID104184843	2.22e7	3.40e7	1.22e7	1.47e7	inactive
HisT	SID104184844	2.66e7	3.90e7	1.36e7	1.69e7	inactive
HisT	SID104186197	1.72e7	1.74e7	8.58e6	9.22e6	inactive
CG1273	SID104188083	3.15e7	3.46e7	1.83e7	1.55e7	inactive
glob3	SID104192053	4.49e7	5.50e7	2.15e7	2.57e7	inactive
prg	SID104183116	4.50e7	6.28e7	2.02e7	2.60e7	inactive
Cyp6u1	SID104184807	3.27e7		1.85e7		inactive
Osi1	SID104192063	3.60e7	5.90e7	1.73e7	2.65e7	inactive
MFS9	SID104195352	3.41e7	3.56e7	1.72e7	1.53e7	inactive
Cad96Cb	SID104194035	3.52e7	4.84e7	1.90e7	2.06e7	inactive
Cad96Cb	SID104194457	3.91e7	5.14e7	1.99e7	2.06e7	inactive
CG2909	SID104198033	3.46e7	3.49e7	1.94e7	1.79e7	inactive
p38b	SID104183378	4.59e7	2.64e7	2.07e7	1.37e7	inactive
eIF4H1	SID104200068	2.12e7	2.35e7	1.09e7	1.06e7	inactive
lncRNA:CR43491	SID104198976	1.98e7	2.77e7	1.07e7	1.26e7	inactive
CG14657	SID104192011	2.91e7	4.67e7	1.40e7	1.99e7	inactive
CG14657	SID104192035	2.58e7	3.66e7	1.14e7	1.60e7	inactive
Cpsf6	SID104190573	2.80e7	1.78e7	2.14e7	9.46e6	inactive
Ntl	SID104182795	4.94e7	3.24e7	2.55e7	1.71e7	inactive
